The supplement of paper PMC12819154, “High-throughput peptide-centric local stability assay extends protein–ligand identification to membrane proteins, tissues and bacteria” (Nature Structural & Molecular Biology, 2025)
Some of the results follow. Most entries show no effect beyond the scatter of the controls.

By UniProt entry, the sequences of proteins in these tests, tags left out. Where a name states a change or a piece, a line headed by the entry shows the natural chain unless it says otherwise.
UniProt P06709, whole entry: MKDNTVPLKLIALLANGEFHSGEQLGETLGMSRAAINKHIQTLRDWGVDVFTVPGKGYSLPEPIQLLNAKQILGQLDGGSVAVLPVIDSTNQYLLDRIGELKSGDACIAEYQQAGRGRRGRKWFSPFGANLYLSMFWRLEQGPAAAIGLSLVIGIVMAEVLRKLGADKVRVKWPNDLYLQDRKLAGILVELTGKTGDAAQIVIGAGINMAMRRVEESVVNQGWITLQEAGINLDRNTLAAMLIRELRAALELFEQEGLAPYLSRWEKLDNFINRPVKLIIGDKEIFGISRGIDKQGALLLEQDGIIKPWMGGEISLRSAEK
UniProt P04994: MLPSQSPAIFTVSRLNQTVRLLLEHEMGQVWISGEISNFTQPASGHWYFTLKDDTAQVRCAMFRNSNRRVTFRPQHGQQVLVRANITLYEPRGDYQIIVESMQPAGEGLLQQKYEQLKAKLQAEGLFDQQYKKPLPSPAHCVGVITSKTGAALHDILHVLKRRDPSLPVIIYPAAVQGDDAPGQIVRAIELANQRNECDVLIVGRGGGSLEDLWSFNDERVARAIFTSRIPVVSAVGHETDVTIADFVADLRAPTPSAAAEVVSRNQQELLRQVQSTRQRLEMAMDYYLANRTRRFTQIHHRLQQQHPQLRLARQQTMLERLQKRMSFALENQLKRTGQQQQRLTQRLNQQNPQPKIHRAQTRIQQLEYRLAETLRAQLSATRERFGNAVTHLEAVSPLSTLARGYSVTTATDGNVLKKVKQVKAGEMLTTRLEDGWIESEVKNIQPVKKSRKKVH
UniProt P06988: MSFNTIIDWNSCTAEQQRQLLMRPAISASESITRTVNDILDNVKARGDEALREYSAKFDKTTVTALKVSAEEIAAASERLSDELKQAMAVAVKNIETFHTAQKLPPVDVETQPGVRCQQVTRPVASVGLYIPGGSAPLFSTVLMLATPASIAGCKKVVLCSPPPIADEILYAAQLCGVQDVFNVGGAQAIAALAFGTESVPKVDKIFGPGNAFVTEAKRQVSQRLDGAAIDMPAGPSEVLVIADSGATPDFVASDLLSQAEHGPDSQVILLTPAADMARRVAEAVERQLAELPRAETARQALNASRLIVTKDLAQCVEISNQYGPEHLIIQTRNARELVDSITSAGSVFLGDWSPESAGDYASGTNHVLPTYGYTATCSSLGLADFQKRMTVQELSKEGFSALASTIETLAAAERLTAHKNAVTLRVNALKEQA
UniProt P00914: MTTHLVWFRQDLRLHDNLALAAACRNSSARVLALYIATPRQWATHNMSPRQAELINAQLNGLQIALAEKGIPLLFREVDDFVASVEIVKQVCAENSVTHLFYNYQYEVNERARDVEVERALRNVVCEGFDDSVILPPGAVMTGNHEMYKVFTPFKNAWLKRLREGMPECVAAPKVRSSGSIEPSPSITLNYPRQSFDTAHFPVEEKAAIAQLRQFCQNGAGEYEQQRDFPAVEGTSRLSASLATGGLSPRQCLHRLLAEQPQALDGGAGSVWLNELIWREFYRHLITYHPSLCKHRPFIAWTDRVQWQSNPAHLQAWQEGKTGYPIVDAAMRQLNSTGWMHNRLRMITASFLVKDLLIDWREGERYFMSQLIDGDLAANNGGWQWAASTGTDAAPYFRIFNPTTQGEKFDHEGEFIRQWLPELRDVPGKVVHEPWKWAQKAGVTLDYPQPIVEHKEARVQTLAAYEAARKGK

Compound: CC1(C)S[C@@H]2[C@H](NC(=O)[C@H](N)c3ccccc3)C(=O)N2[C@H]1C(=O)O [ampicillin]
Experiment: log2 fold change of tryptic peptide abundance, ligand vs vehicle (limited proteolysis) (log2 ratio); higher = more trypsin-susceptible (destabilized)
Settings: ligand concentration: 10 uM; sample: E. coli crude lysate

Question: For “UniProt P06709 (peptide sequence: KLAGILVELTGK, peptide start residue: 183)”, which log2 fold change is on record?
Answer: -0.291

Question: Which log2 fold change does the source give for “UniProt P04994 (peptide sequence: LEDGWIESEVK, peptide start residue: 433)” here?
Answer: -0.498

Question: “UniProt P06988 (peptide sequence: VNALKEQA, peptide start residue: 427)” was tested. Which log2 fold change did it give?
Answer: -0.217

Question: For “UniProt P00914 (peptide sequence: VLALYIATPR, peptide start residue: 31)”, which log2 fold change is on record?
Answer: -0.558

Question: “UniProt P00954 (peptide sequence: NDEAFLQQVMK, peptide start residue: 297)” was tested. Which log2 fold change did it give?
Answer: 0.192
